# Experimental data taken from the supplement of paper PMC10338343.
# ± gives the standard deviation. The list shows a part of the results, in another mix than the full data. The uncertainty is large for many entries.
# Test system: MIWI (PIWIL1) piRISC loaded with piRNA #1 (30 nt)
# Test: pre-steady-state target cleavage rate (min^-1); MIWI and MILI are mouse PIWI proteins and EfPiwi is from a freshwater sponge; tags in brackets are library labels; higher = faster piRNA-guided slicing of the target
# Details: guide: piRNA #1 5'p-UGAGGUAGUAGGUUGUAUAGUAUCCAGAGG; auxiliary factor: 500 nM mouse GTSF1
# Summary of the method: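 Active affinity-purified piRISC (1 nM) loaded with one synthetic guide was mixed with a transcribed, DNA-blocked target RNA library (0.1 nM), with or without 500 nM GTSF1 partner protein, in HEPES–potassium acetate buffer at 33 °C for 0–8 or 0–960 min. Uncleaved targets were sequenced, normalised to depth and to weakly complementary targets, and pooled across three trials, with k3 capped at 0.0001 min^-1. The pre-steady-state cleavage rate was determined with a burst-and-steady-state fit.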
row,Sequence,pre-steady-state target cleavage rate
1,GGACUGGAUACUAUACAACCUACAACGUCA,0.00117 ± 0.004
2,GGACUGGAUACUAUACAACCUACGUACCUCA,0.656 ± 0.089
3,CCCUCUGGAUACUAUACAACCUACUACCUCA,2.25 ± 0.12
4,GCUCUGGAUACUAUACAACCAUGAUGGAGA [g11:g29:cont:t1A],0.00246 ± 0.0052
5,GGUCUGGAUACUAUACAACCUACUACCUCCA,2.06 ± 0.12
6,GGAGACCUAUGAUAUCAACCACUACCUCA,0.000285 ± 0.0085
7,GGAGUGGAUACUAUACAACCUACUCACCUCA,0.793 ± 0.088
8,GGAGACCUAUGAUAUGUACCUACUAACUCA,< 0.0001
9,GGAGACCUAUGAAUUACAACCUACUACCUCA,0.00112 ± 0.0041
10,GGAGACCUAUGAUAUCAAGCUACUACCUCA,0.000221 ± 0.011
11,GGUCUAGGAUACUAUACAACCUACUACCUCA,1.83 ± 0.1
12,CUUCUGGAUACUAUACAACCUACUACCUCA,1.99 ± 0.11
13,GCUCUGGAUACUAUACAACCUAGAUGGAGA [g9:g29:cont:t1A],0.00269 ± 0.003
14,CCCCUGGAUACUAUACAACCUACUACCUCA,2.45 ± 0.15
15,GGAGUGGAUACUAUCACAACCUACUACCUCA,1.49 ± 0.12
16,GGACUGCUUACUAUACAACCUACUACCUCA,1.54 ± 0.14
17,GGAGACCUAUGAUUACAACCUACAUCCUCA,0.00173 ± 0.0033
18,GGAGACCUAUGAAUACAUCCUACUACGUCA,0.000404 ± 0.0046
19,GGACUGGAUACGAUACAACCUACUACCUCA,1.64 ± 0.1
20,GGAGACCUAUGAUUACAACCUACUACCGCA,0.00152 ± 0.0054

row,Sequence,pre-steady-state target cleavage rate
1,CCUCUGGAUACUAUAGAACCUACAACCUCA,0.0249 ± 0.007
2,GGAGACCUAUGAAUAGAACCUACUACCUCA,0.000298 ± 0.0085
3,GCUCUGGAUACUAUACAACCGUACUACCUCA,0.00396 ± 0.0043
4,GGACUGGAUACUAUAGAACCUACAACCUCA,0.00257 ± 0.0029
5,GGUCUGGAUACUAUACACACCUACUACCUCA,0.000625 ± 0.013
6,GGAGACCUAUCUAUACAAGGAACUACCUCA,0.00153 ± 0.0027
7,GGAGACCUAUGAUAUGUUGGUACUACCCCA,0.000285 ± 0.017
8,GGACUGGAAACUUUACAACCUACUACCUCA,0.689 ± 0.076
9,GGAGACCUAUGAUAUGUUGCUACUUGCUCA,0.000726 ± 0.007
10,GGUCUGGAUACUAUACAAUCCUACUACCUCA,0.000826 ± 0.0086
11,GGAGACCUAUGAUUACAACCUAUCUACCUCA,0.00105 ± 0.0055
12,GGUCUGGAUACUAUACAACCUACAACCACA,0.00192 ± 0.0027
13,GGUCUGGAUACUAUACAGACCUACUACCUCA,0.00138 ± 0.007
14,CCUCUGGAUACUAUUCAACCUACAACCUCA,1.62 ± 0.13
15,GGAGACCUAUGAAUACAACCUACUACCUCA [g2:g18:cont:t1A],0.00233 ± 0.0046
16,GGAGACCUUUGAAUACAACCUACUACCUCA,0.00143 ± 0.0062
17,GGUCAGGAUACUUUACAACCUACUACCUCA,1.54 ± 0.085
18,GGAGACCUAUGAUAACAACCUACUACCUCC [g2:g16:cont:t1C],0.00111 ± 0.0037
19,GCUCUGGUUACUAUACAACCUACUACCUCA,2.1 ± 0.12
20,GGAGACCUAUGAUAUGUUGCUACUCCUCA,0.000419 ± 0.0083

# Retrieved one by one from above, three records:
row,Sequence,pre-steady-state target cleavage rate
18,GGAGACCUAUGAUAACAACCUACUACCUCC [g2:g16:cont:t1C],0.00111 ± 0.0037
4,GGACUGGAUACUAUAGAACCUACAACCUCA,0.00257 ± 0.0029
19,GCUCUGGUUACUAUACAACCUACUACCUCA,2.1 ± 0.12
